Test [1] concerns the target Human IL22 (human) (UniProt Q9GZX6). Description: SPR Biacore T200.
The target of test [2] is Cleaved IL22 (IL22 protein after TEV cleavage) (human) (UniProt Q9GZX6). Description: complex purified by size-exclusion chromatography and crystallised. Background: SEC sorts molecules by how far they enter the pores of the column.
For test [3], the target named is T1, Cynomolgus IL22 (cynomolgus) (UniProt G7PHZ7).
T1 sequence: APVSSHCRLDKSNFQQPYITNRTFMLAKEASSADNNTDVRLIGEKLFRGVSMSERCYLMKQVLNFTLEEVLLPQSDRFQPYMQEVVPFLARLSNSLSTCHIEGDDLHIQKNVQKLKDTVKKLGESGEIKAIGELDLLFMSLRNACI
In words: recombinant cloned Fab, binding retest.

These results are taken from patent US20240067758A1.

No constants are given. Whether binding was seen depends on the method and setting. Some results given as binding are weak or reduced against the parent protein; the word gives no strength.

B1: 11041gL13gH14 Fab (as a part of a bispecific antibody) (bispecific antibody, V domains shown)
VH: EVQLVESGGGLVQPGGSLRLSCAVSGFSLSSYAMIWVRQAPGKGLEWIGIIDIEGSTYYASWAKGRFTISRDNSKNTVYLQMNSLRAEDTAVYYCARDRFVGVDIFDPWGQGTLVTVSS
VL: AVQLTQSPSSLSASVGDRVTITCQASEDIYTNLAWYQQKPGKAPKLLIYWASTLASGVPSRFSGSGSGTDFTLTISSLQPEDFATYYCQASVYGNAADSRYTFGGGTKVEIKR
As to B1, the binding entry in test [1] is on record as “binds”.

B2: 11041gL13gH14 Fab (Fab, V domains shown)
VH: B1 VH
VL: B1 VL
Regarding B2, the binding result in test [2] is given as “binds”.

B3: 11070 (Fab, V domains shown)
VH: EVQLQESGPGLVQPSQTLSPTCTVSGFSLTSYSVHWVRQHSGKSLEWMGRMWSDGDTSYNSAFTSRLSITRDTSKSQVFLKMNSLQTEDTGTYYCARSLDFYYDTTLAFWGPGTTVTVSS
VL: DIVMTQTPSNLAASPGESVSINCKASKTISKYLAWYQQKPGKANKLLIYSGSTLQSGTPSRFSGSGSSTDFTLTIRNLEPEDFGLYYCQQHNEYPLTFGSGTKLEIK
In the case of B3, the binding entry in test [3] is on record as “binds”.

B4: Rabbit 11041 Fab (Fab, V domains shown)
VH: QSVEESGGRLVTPGTPLTLTCTVSGFSLSSYAMIWVRQAPGEGLEWIGIIDIDGSTYYASWAKGRFTISRTSTTVDLKITSPTTGDTATYFCARDRFVGVDIFDPWGPGTLVTVSS
VL: AVVLTQTASPVSAPVGGTVTIKCQASEDIYTNLAWYQQKPGQPPKLLIYWASTLASGVPSRFKGSGSGTEFTLTISDLECADAATYYCQACVYGNSADSRYTFGGGTEVVVK
Regarding B4, the binding result in test [3] is listed as “binds”.
